Measured values reported in the supplement of paper PMC10849652.
This is one part of the list.

Chains of the proteins cited; added tags and fusions are not shown. Lines headed by an entry give the natural chain unless they say otherwise; changes in a name come on top.
UniProt Q15019: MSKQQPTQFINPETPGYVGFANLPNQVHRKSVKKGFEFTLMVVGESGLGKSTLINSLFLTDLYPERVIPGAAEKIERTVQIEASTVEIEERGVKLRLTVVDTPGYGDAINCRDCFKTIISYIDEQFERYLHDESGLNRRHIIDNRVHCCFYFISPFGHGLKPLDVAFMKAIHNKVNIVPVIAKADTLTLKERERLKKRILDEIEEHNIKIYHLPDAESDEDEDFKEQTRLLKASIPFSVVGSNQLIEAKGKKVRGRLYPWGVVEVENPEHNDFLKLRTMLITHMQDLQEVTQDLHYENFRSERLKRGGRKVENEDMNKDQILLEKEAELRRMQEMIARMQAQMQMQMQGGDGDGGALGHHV
UniProt Q9UGP8: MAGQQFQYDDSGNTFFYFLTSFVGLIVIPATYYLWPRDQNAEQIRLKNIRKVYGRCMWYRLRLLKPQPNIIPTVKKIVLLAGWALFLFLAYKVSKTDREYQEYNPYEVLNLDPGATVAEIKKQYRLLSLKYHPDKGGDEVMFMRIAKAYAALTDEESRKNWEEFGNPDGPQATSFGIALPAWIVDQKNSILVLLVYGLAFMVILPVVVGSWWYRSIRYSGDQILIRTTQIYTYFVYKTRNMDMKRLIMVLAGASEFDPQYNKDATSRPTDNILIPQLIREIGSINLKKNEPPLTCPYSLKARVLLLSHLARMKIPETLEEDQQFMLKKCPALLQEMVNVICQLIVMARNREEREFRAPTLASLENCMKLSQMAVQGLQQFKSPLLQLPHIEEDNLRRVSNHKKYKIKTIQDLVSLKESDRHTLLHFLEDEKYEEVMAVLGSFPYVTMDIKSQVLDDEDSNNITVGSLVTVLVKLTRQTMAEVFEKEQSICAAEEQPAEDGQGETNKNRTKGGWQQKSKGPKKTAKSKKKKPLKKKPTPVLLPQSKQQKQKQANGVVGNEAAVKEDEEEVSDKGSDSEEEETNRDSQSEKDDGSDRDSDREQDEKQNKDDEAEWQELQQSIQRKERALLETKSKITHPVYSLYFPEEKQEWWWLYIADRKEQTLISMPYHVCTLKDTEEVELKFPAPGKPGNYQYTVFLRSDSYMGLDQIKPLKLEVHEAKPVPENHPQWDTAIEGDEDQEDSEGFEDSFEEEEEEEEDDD
UniProt Q8TBC3: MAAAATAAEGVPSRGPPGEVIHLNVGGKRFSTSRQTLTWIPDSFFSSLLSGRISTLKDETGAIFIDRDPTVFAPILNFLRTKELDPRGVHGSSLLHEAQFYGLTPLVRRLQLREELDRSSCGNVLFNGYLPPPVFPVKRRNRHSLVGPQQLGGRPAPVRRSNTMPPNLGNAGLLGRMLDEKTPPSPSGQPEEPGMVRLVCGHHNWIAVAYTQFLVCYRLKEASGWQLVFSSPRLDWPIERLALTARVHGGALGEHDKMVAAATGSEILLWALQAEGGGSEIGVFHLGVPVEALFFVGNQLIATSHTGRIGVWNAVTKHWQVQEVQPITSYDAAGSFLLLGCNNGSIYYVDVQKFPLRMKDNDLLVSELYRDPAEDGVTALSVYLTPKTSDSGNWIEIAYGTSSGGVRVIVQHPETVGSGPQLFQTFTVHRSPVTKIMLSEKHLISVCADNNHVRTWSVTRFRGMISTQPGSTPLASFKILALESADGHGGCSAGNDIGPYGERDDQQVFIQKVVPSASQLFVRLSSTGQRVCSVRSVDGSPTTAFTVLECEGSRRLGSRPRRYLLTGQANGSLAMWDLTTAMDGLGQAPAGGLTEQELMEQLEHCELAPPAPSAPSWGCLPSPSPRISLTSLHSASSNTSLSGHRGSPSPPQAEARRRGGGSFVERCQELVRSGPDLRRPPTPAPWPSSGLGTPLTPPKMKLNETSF
UniProt Q96NB2: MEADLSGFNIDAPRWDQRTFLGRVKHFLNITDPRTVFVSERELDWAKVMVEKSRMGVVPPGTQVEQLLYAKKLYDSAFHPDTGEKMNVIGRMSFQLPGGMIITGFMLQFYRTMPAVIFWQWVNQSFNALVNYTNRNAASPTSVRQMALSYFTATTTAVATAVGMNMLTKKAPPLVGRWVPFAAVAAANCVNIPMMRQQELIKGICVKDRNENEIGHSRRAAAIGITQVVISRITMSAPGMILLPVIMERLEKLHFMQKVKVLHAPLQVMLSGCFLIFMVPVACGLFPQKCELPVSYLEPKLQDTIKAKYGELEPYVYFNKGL
UniProt Q68CR1: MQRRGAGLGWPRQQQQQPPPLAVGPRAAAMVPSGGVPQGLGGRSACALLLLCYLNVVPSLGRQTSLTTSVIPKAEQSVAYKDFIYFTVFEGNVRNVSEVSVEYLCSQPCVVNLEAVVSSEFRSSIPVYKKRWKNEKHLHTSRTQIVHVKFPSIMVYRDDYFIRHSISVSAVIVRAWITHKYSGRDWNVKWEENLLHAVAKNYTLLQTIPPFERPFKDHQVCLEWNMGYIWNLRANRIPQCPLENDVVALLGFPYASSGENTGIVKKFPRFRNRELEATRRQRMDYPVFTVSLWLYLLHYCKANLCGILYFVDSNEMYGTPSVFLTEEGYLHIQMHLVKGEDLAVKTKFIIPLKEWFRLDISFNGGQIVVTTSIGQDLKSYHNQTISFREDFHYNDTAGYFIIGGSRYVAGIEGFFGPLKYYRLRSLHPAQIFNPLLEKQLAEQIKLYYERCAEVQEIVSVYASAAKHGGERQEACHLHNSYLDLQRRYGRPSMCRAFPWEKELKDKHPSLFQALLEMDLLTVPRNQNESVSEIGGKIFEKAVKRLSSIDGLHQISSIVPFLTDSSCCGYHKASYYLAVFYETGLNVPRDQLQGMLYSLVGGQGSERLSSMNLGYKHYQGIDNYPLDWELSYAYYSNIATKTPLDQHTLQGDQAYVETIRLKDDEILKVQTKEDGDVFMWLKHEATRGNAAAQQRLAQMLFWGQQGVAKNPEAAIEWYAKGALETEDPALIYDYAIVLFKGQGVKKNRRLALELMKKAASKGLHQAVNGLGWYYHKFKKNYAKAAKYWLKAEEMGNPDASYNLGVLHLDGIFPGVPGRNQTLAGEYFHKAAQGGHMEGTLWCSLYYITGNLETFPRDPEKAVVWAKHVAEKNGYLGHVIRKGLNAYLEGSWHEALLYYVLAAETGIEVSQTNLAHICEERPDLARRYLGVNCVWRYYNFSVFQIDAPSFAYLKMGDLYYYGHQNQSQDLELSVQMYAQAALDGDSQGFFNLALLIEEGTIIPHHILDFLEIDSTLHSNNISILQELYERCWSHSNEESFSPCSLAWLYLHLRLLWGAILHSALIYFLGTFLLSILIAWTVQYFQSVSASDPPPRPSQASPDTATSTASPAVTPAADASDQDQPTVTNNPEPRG
UniProt Q9H299: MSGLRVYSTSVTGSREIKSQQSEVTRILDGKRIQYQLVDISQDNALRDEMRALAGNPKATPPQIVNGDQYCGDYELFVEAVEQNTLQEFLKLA
UniProt Q96ST3: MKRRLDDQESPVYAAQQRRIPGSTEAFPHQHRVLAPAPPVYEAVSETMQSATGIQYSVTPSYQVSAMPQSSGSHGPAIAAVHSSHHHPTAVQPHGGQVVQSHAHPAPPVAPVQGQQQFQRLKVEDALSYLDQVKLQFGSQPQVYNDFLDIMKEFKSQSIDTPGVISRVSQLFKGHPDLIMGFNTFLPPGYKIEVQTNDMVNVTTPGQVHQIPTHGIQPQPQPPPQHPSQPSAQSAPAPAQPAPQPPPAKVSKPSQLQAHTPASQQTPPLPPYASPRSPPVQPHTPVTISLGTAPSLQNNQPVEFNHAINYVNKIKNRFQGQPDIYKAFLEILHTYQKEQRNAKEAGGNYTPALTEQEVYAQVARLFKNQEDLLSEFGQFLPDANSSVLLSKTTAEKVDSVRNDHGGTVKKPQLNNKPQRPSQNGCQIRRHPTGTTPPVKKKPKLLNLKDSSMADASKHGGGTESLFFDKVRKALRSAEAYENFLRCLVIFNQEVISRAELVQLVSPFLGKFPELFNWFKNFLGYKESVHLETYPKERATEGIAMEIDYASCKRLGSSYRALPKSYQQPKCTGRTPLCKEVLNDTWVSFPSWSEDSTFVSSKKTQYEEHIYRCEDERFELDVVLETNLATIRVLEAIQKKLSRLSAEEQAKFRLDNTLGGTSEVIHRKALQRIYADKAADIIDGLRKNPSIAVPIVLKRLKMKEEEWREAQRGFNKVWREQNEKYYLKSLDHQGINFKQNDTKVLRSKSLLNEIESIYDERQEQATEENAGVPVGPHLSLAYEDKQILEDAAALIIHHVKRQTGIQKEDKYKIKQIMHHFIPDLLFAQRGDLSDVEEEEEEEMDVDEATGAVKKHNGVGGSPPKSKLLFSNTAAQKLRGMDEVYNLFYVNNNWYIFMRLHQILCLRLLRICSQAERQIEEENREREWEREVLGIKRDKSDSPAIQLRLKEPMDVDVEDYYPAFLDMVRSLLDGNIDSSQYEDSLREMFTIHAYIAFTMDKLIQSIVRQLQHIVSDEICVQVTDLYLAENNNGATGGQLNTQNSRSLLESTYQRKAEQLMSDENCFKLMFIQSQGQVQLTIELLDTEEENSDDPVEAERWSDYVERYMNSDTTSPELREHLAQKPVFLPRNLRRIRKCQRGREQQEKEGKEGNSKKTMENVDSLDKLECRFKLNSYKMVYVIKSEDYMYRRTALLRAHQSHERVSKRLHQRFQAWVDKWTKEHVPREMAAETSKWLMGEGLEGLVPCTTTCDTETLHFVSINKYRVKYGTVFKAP
UniProt Q9UBV2: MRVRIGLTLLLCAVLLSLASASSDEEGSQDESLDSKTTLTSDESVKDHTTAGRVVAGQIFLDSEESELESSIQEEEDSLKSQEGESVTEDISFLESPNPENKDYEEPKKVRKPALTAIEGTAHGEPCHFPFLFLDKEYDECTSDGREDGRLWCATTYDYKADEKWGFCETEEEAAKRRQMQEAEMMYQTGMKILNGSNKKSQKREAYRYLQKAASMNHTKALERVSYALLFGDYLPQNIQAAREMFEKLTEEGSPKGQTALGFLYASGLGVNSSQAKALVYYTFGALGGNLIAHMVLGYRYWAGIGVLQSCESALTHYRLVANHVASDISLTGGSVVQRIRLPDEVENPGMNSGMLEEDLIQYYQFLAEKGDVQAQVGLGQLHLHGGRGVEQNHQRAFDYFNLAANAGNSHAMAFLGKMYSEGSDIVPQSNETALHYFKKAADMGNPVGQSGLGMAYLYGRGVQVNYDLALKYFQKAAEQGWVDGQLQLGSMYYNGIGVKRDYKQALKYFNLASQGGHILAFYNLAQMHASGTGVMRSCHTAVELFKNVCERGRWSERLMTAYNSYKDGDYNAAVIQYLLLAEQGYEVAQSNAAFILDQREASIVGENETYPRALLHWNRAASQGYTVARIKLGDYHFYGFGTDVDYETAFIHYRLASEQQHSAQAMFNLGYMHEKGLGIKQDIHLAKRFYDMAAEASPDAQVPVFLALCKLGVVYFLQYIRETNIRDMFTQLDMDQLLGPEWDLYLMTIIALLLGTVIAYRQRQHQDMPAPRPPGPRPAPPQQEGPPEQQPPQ
UniProt P34897: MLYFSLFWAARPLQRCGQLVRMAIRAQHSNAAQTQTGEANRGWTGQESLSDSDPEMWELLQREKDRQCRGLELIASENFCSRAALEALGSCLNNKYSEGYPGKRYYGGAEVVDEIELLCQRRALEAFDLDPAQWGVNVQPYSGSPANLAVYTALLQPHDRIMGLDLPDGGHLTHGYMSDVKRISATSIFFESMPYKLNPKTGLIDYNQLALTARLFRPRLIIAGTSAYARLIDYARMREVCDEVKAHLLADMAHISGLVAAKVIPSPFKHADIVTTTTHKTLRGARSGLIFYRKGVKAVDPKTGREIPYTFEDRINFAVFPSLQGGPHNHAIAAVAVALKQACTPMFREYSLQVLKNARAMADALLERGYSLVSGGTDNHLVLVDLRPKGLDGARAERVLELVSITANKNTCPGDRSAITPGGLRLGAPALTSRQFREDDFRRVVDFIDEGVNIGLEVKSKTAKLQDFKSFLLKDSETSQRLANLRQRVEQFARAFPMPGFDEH
UniProt Q15427: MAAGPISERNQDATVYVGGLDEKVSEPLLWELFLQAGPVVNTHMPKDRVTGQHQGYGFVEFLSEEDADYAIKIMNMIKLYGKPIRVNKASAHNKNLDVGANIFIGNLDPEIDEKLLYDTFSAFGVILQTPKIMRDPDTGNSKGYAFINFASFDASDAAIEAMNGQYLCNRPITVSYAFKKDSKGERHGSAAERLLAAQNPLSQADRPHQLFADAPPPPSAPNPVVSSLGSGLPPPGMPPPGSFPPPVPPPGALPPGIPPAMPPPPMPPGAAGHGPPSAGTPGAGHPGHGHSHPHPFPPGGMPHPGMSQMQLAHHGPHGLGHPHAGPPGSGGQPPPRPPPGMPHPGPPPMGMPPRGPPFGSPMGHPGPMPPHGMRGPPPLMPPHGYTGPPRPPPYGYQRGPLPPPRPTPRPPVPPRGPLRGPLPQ

Assays:
Assay in all cases: log2 fold change, soluble protein after heating vs DMSO (PISA); higher = thermal stabilisation; K562 cells, 10 uM, 30 min; active = over 0.2 and 3.5 SD of the protein, either way, in both replicates (recomputed)
[1] = compound: CN1CCN(CCOc2cc(OC3CCOCC3)c3c(Nc4c(Cl)ccc5c4OCO5)ncnc3c2)CC1 [saracatinib]
Procedure, shortened: (§1)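 K562 cells at 2×10^6 cells/mL were given 10 μM compound for 30 min. Aliquots then went through 3 min of heating across 48°C-58°C, were pooled, and were extracted in PBS with 0.5% NP-40 at 4°C, and the supernatant after 21,000xg for 90 min was quantified by TMTpro 16plex LC-MS/MS with channel sums equalised. Thermal stability relative to control samples, from duplicates, is given as log2 fold change.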

[2] = compound: CN1CCN(c2nc(C3=C(c4c[nH]c5ccccc45)C(=O)NC3=O)c3ccccc3n2)CC1 [sotrastaurin]
Procedure, shortened: as §1

[3] = compound: CN1CC[C@H](c2c(O)cc(O)c3c(=O)cc(-c4ccccc4Cl)oc23)[C@H](O)C1 [alvocidib]
Procedure, shortened: as §1

[4] = compound: CN1CCc2c(c3ccccc3n2Cc2ccc(C(=O)NO)cc2)C1 [Tubastatin A]
Procedure, shortened: as §1

[5] = compound: CNC(=O)C1=CC=CC=C1NC2=NC(=NC=C2Cl)NC3=C(C=C(C=C3)N4CCOCC4)OC
Procedure, shortened: as §1

[6] = compound: CNC(=O)c1ccc(Nc2ncc(C(F)(F)F)c(NCc3nccnc3N(C)S(C)(=O)=O)n2)cc1 [defactinib]
Procedure, shortened: as §1

[7] = compound: CNCc1ccc(-c2[nH]c3cc(F)cc4c3c2CCNC4=O)cc1 [rucaparib]
Procedure, shortened: as §1

[8] = compound: CNc1nc(-c2ccc3c(N)n[nH]c3c2)cc(N2C[C@@H](C(=O)NC3CCCCC3)CC[C@H]2C)n1
Procedure, shortened: as §1

[9] = compound: COC(=O)N[C@@H](C)CNc1nccc(-c2cn(C(C)C)nc2-c2cc(Cl)cc(NS(C)(=O)=O)c2F)n1 [encorafenib]
Procedure, shortened: as §1

[10] = compound: COC(=O)[C@H](CCSC)NC(=O)C1=C(C=C(C=C1)NC[C@H](CS)N)C2=CC=CC=C2
Procedure, shortened: as §1

[11] = compound: COC1=CC=C(C=C1)CN2C=CC3=C2C=C(C=C3)C(=O)NO
Procedure, shortened: as §1

[12] = compound: CON(C)C(=O)N1N=C(c2cc(F)ccc2F)S[C@@]1(CCCN)c1ccccc1 [filanesib]
Procedure, shortened: as §1

[13] = compound: CO[C@H]1C[C@@H]2CC[C@@H](C)[C@@](O)(O2)C(=O)C(=O)N2CCCC[C@H]2C(=O)O[C@H]([C@H](C)C[C@@H]2CC[C@H](n3cnnn3)[C@H](OC)C2)CC(=O)[C@H](C)/C=C(\C)[C@@H](O)[C@@H](OC)C(=O)[C@H](C)C[C@H](C)/C=C/C=C/C=C/1C [zotarolimus]
Procedure, shortened: as §1

[14] = compound: COc1cc(C(=O)O)ccc1NC(=O)[C@@H]1N[C@@H](CC(C)(C)C)[C@](C#N)(c2ccc(Cl)cc2F)[C@H]1c1cccc(Cl)c1F [idasanutlin]
Procedure, shortened: as §1

[15] = compound: COc1cc(Nc2ncc3c(n2)-c2ccc(Cl)cc2C(c2c(F)cccc2OC)=NC3)ccc1C(=O)O [alisertib]
Procedure, shortened: as §1

[16] = compound: COc1cc2nc(-c3cc(F)ccc3O)nc(N[C@@H]3CNC[C@H]3C(C)(C)O)c2cc1OC
Procedure, shortened: as §1

[17] = compound: COc1cc2ncnc(Nc3ccc(F)c(Cl)c3)c2cc1OCCCN1CCOCC1 [gefitinib]
Procedure, shortened: as §1

[18] = compound: COc1cccc2cc(-c3nc([C@H]4CC[C@H](C(=O)O)CC4)n4ncnc(N)c34)[nH]c12
Procedure, shortened: as §1

[19] = compound: CS(=O)(=O)CCNCc1ccc(-c2ccc3ncnc(Nc4ccc(OCc5cccc(F)c5)c(Cl)c4)c3c2)o1 [lapatinib]
Procedure, shortened: as §1

[20] = compound: CS(=O)(=O)N1CCN(Cc2cc3nc(-c4cccc5[nH]ncc45)nc(N4CCOCC4)c3s2)CC1 [pictilisib]
Procedure, shortened: as §1

Measured: log2 fold change

SEPTIN2 isoform 2 (UniProt Q15019)
inactive: [1] 0.003 | [2] 0.072 | [3] -0.018 | [4] 0.018 | [5] -0.046 | [6] -0.009 | [7] -0.044 | [8] -0.002 | [9] -0.01 | [10] 0.013 | [11] -0.012 | [12] 0.003 | [13] -0.028 | [14] -0.037 | [15] -0.043 | [16] 0.031 | [17] -0.003 | [18] 0.067 | [19] -0.026 | [20] 0.018

SGO1 (UniProt Q5FBB7)
inactive: [1] -0.068 | [2] -0.067 | [3] -0.027 | [4] 0.051 | [5] -0.034 | [6] -0.025 | [7] 0.01 | [8] 0.006 | [9] 0 | [10] -0.011 | [11] -0.084 | [12] 0.066 | [13] 0.005 | [14] -0.018 | [15] -0.034 | [16] 0.015 | [17] 0.031 | [18] 0 | [19] 0.017 | [20] -0.018

SEPTIN11 isoform 2 (UniProt Q9NVA2)
inactive: [1] 0.02 | [2] 0.032 | [3] -0.018 | [4] 0.013 | [5] -0.021 | [6] -0.01 | [7] -0.014 | [8] -0.035 | [9] -0.006 | [10] 0.017 | [11] 0.003 | [12] -0.005 | [13] -0.024 | [14] -0.004 | [15] -0.057 | [16] -0.006 | [17] 0.003 | [18] 0.039 | [19] -0.064 | [20] 0.045

SH3BP5 (UniProt O60239)
inactive: [1] 0.051 | [2] 0.065 | [3] 0.083 | [4] -0.016 | [5] 0.067 | [6] -0.012 | [7] -0.023 | [8] -0.068 | [9] 0.011 | [10] 0.018 | [11] -0.022 | [12] -0.104 | [13] -0.041 | [14] 0.053 | [15] -0.037 | [16] -0.021 | [17] -0.02 | [18] -0.03 | [19] 0.056 | [20] 0.145

SEPHS2 (UniProt Q99611)
inactive: [1] 0.078 | [2] -0.008 | [3] -0.022 | [4] -0.008 | [5] -0.034 | [6] -0.023 | [7] -0.133 | [8] 0.043 | [9] 0.07 | [10] 0.004 | [11] 0.046 | [12] -0.055 | [13] 0.023 | [14] 0.004 | [15] -0.067 | [16] -0.061 | [17] -0.024 | [18] 0.204 | [19] 0.057 | [20] -0.174

SEC63 (UniProt Q9UGP8)
inactive: [1] 0.043 | [2] 0.02 | [3] -0.004 | [4] -0.017 | [5] -0.001 | [6] -0.019 | [7] -0.015 | [8] -0.015 | [9] 0.006 | [10] -0.002 | [11] 0.003 | [12] -0.015 | [13] 0.013 | [14] -0.097 | [15] -0.038 | [16] 0.093 | [17] 0.02 | [18] -0.008 | [19] -0.011 | [20] -0.008

SHKBP1 (UniProt Q8TBC3)
inactive: [1] 0.046 | [2] 0.06 | [3] -0.004 | [4] -0.02 | [5] 0.014 | [6] 0.036 | [7] -0.059 | [8] -0.03 | [9] -0.004 | [10] -0.029 | [11] -0.02 | [12] 0.05 | [13] 0.018 | [14] 0.013 | [15] -0.005 | [16] 0.056 | [17] -0.026 | [18] 0.043 | [19] -0.036 | [20] -0.022

SHC1 isoform 6 (UniProt P29353)
inactive: [1] 0.003 | [2] 0.028 | [3] -0.033 | [4] -0.027 | [5] -0.019 | [6] -0.019 | [7] -0.02 | [8] -0.049 | [9] 0.012 | [10] 0.063 | [11] -0.004 | [12] 0 | [13] -0.032 | [14] 0.005 | [15] -0.071 | [16] 0.011 | [17] 0.015 | [18] 0.032 | [19] -0.001 | [20] 0.053

SFXN2 (UniProt Q96NB2)
inactive: [1] -0.016 | [2] 0.027 | [3] -0.006 | [4] 0.053 | [5] 0.008 | [6] -0.038 | [7] -0.071 | [8] 0.006 | [9] -0.017 | [10] -0.057 | [11] -0.024 | [12] -0.101 | [13] -0.015 | [14] -0.005 | [15] 0.063 | [16] -0.049 | [17] 0.036 | [18] 0.08 | [19] 0.037 | [20] 0.052

SERPINH1 (UniProt P50454)
inactive: [1] -0.02 | [2] -0.017 | [3] -0.029 | [4] -0.003 | [5] -0.019 | [6] 0.005 | [7] -0.001 | [8] 0.013 | [9] 0.016 | [10] -0.024 | [11] -0.025 | [12] -0.006 | [13] 0.023 | [14] -0.004 | [15] -0.065 | [16] -0.003 | [17] 0.008 | [18] -0.009 | [19] 0.03 | [20] 0.028

SEL1L3 (UniProt Q68CR1)
inactive: [1] -0.14 | [2] -0.104 | [3] 0.098 | [4] -0.009 | [5] 0.014 | [6] -0.019 | [7] 0.021 | [8] 0.004 | [9] 0.051 | [10] -0.003 | [11] -0.128 | [12] 0.11 | [13] 0.053 | [14] 0.085 | [15] -0.116 | [16] -0.074 | [17] 0.049 | [18] 0.073 | [19] 0.066 | [20] 0.011

SH3BGRL3 (UniProt Q9H299)
inactive: [1] 0.02 | [2] -0.042 | [3] -0.032 | [4] -0.01 | [5] 0.013 | [6] -0.003 | [7] -0.03 | [8] 0.006 | [9] 0.021 | [10] 0.023 | [11] -0.063 | [12] 0.005 | [13] 0.067 | [14] -0.019 | [15] -0.054 | [16] -0.076 | [17] 0.023 | [18] 0.019 | [19] 0.152 | [20] 0.019

Two entries picked at random from the list so far, as already listed:
SHC1 isoform 6 (UniProt P29353)
inactive: [1] 0.003 | [2] 0.028 | [3] -0.033 | [4] -0.027 | [5] -0.019 | [6] -0.019 | [7] -0.02 | [8] -0.049 | [9] 0.012 | [10] 0.063 | [11] -0.004 | [12] 0 | [13] -0.032 | [14] 0.005 | [15] -0.071 | [16] 0.011 | [17] 0.015 | [18] 0.032 | [19] -0.001 | [20] 0.053

SEL1L3 (UniProt Q68CR1)
inactive: [1] -0.14 | [2] -0.104 | [3] 0.098 | [4] -0.009 | [5] 0.014 | [6] -0.019 | [7] 0.021 | [8] 0.004 | [9] 0.051 | [10] -0.003 | [11] -0.128 | [12] 0.11 | [13] 0.053 | [14] 0.085 | [15] -0.116 | [16] -0.074 | [17] 0.049 | [18] 0.073 | [19] 0.066 | [20] 0.011

Later entries.

SIN3A (UniProt Q96ST3)
inactive: [1] 0.019 | [2] -0.118 | [3] 0.011 | [4] 0.042 | [5] 0.087 | [6] -0.075 | [7] -0.021 | [8] -0.072 | [9] 0.024 | [10] -0.095 | [11] -0.012 | [12] 0.122 | [13] 0 | [14] 0.068 | [15] -0.125 | [16] -0.043 | [17] -0.014 | [18] -0.103 | [19] 0.036 | [20] 0.076

SEL1L (UniProt Q9UBV2)
inactive: [1] 0.016 | [2] -0.056 | [3] -0.041 | [4] 0.014 | [5] -0.024 | [6] 0.011 | [7] 0.097 | [8] 0.001 | [9] -0.003 | [10] 0.016 | [11] -0.022 | [12] -0.05 | [13] 0.014 | [14] 0 | [15] -0.019 | [16] 0.008 | [17] -0.008 | [18] -0.016 | [19] 0.025 | [20] 0.027

SHMT2 (UniProt P34897)
inactive: [1] 0.015 | [2] 0.034 | [3] 0.003 | [4] -0.031 | [5] 0.009 | [6] -0.011 | [7] -0.036 | [8] -0.062 | [9] -0.024 | [10] 0.015 | [11] 0.007 | [12] -0.056 | [13] -0.014 | [14] -0.021 | [15] -0.04 | [16] 0.016 | [17] 0.013 | [18] 0.043 | [19] -0.03 | [20] 0.019

SF3B4 (UniProt Q15427)
inactive: [1] -0.035 | [2] 0.033 | [3] 0.095 | [4] 0.047 | [5] 0.034 | [6] 0.11 | [7] 0.078 | [8] -0.084 | [9] 0.035 | [10] 0.042 | [11] -0.011 | [12] 0.147 | [13] -0.053 | [14] 0.06 | [15] -0.15 | [16] -0.018 | [17] -0.009 | [18] -0.086 | [19] 0.042 | [20] 0.001
